From publication PMC4658663

By UniProt entry, the sequences of proteins in these tests, tags left out. Where a name states a change or a piece, a line headed by the entry shows the natural chain unless it says otherwise.
UniProt P25100: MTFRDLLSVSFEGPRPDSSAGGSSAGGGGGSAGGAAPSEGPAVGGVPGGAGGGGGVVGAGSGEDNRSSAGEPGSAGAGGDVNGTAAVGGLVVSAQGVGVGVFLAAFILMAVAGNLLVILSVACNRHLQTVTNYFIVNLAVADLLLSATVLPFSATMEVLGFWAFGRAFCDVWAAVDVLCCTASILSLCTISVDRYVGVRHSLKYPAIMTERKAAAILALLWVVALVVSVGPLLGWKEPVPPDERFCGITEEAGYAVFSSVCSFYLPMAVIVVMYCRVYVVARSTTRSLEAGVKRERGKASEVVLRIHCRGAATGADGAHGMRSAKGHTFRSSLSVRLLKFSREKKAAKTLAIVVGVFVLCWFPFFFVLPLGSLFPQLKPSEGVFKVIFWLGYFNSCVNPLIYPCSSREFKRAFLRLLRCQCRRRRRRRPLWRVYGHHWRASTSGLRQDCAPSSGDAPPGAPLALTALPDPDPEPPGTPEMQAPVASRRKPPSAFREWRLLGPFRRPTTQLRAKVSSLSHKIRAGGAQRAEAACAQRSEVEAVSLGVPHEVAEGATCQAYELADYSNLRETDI
UniProt Q14160: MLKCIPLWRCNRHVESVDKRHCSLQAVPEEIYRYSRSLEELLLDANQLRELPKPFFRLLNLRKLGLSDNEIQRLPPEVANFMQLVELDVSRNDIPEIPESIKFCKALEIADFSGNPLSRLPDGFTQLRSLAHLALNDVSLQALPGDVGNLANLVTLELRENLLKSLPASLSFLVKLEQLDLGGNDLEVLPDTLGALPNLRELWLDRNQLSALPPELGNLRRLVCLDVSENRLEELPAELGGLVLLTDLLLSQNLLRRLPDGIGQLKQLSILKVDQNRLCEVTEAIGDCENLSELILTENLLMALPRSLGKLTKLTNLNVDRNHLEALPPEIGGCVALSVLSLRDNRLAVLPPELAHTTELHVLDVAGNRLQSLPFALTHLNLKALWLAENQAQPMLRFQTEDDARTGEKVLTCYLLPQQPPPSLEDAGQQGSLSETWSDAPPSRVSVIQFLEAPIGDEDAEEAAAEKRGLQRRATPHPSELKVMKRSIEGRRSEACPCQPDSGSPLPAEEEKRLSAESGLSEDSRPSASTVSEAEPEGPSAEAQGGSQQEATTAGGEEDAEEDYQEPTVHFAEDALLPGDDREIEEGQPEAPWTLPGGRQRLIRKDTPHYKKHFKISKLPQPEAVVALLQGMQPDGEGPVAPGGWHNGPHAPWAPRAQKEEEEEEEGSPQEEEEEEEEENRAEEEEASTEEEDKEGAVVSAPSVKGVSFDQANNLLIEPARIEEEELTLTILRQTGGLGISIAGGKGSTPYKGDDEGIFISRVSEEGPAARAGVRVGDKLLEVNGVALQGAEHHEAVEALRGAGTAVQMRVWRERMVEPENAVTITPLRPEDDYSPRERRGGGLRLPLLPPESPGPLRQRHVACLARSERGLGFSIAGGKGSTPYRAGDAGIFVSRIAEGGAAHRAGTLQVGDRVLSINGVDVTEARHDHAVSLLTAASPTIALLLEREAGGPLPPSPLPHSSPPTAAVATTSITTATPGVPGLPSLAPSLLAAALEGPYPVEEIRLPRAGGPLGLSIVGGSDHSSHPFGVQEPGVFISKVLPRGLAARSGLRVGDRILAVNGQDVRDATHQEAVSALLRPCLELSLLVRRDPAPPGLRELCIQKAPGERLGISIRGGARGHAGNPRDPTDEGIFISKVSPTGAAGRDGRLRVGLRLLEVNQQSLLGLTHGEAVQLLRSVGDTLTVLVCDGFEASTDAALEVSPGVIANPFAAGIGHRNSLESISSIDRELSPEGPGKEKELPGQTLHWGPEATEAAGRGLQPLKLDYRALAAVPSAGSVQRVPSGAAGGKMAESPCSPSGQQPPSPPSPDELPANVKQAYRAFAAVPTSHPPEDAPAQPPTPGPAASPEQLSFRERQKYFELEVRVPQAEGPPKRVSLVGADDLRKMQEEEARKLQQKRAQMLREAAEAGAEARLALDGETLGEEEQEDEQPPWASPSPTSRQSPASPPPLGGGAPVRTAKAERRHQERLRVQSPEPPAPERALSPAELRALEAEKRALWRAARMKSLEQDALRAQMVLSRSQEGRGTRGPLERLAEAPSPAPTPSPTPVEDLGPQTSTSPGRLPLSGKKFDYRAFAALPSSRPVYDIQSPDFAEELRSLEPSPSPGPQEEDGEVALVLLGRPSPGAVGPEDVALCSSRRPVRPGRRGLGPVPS

Tests used:
[1] = biological target: TAP–ADRA1D-ΔPDZ (human) (UniProt P25100); experiment: pull-down; as a7, with Myc–ADRA1D co-expressed with the TAP-tagged bait; western blot
[2] = biological target: TAP–ADRA1D-ΔPDZ (human) (UniProt P25100); experiment: pull-down; TAP-tagged bait purified from cleared cell lysate (0.5% digitonin, 75 mM Tris pH 8.0, 2 mM EDTA, 5 mM MgCl2, 1 mM DTT) on streptavidin sepharose, 3 h at 4 °C; western blot

Row | binding [1] | binding [2] | Substance
1 | binds | – | Myc–ADRA1D (from UniProt P25100 1-572) (receptor)
2 | no binding | no binding | Scribble (SCRIB), endogenous (from UniProt Q14160 1-1655)

Results are given in words; binding and its absence hold for the method and conditions named. Binding seen in cells or lysates may run through a third protein. For part of these data: Binding can be weak; no strength is given.
